Results are given in words; binding and its absence hold for the method and conditions named. In cells and extracts the contact can be indirect. Some results given as binding are weak or reduced against the parent protein; the word gives no strength.
Molecular target: aryl hydrocarbon receptor (human (endogenous in HMC-1)) (UniProt P35869)
Assay: co-IP; nuclear fraction of HMC-1 cells treated with vehicle or DEP (10 μg/mL); lysed in pull-down buffer; immunoprecipitated with antibody against p65 or AhR and protein A/G magnetic beads at 4 °C overnight; western blot for AhR or p65

The chains behind the UniProt entries cited, without tags or fusion partners. Residues count along the entry.
UniProt P35869, residues 11-848: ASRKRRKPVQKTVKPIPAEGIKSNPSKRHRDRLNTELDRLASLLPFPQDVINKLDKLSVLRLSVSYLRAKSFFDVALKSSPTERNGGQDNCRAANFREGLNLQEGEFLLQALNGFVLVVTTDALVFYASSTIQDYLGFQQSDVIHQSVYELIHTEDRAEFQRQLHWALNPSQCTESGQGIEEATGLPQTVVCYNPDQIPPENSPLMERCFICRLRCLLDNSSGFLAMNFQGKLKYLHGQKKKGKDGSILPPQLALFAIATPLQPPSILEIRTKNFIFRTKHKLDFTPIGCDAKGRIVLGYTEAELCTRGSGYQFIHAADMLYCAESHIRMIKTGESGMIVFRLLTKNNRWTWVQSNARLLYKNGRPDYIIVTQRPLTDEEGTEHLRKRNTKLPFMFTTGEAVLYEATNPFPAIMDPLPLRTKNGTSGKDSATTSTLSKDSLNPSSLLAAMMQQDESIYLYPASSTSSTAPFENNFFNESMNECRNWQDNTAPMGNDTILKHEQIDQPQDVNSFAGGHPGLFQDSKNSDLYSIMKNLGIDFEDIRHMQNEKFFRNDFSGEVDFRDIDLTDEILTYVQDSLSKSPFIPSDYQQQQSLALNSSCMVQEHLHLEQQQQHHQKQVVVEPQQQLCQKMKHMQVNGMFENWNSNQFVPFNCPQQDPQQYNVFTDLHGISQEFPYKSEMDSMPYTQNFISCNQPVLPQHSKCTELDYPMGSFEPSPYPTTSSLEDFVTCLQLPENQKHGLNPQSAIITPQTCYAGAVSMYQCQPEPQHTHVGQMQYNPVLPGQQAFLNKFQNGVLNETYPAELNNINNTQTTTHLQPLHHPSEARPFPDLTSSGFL
UniProt Q04206: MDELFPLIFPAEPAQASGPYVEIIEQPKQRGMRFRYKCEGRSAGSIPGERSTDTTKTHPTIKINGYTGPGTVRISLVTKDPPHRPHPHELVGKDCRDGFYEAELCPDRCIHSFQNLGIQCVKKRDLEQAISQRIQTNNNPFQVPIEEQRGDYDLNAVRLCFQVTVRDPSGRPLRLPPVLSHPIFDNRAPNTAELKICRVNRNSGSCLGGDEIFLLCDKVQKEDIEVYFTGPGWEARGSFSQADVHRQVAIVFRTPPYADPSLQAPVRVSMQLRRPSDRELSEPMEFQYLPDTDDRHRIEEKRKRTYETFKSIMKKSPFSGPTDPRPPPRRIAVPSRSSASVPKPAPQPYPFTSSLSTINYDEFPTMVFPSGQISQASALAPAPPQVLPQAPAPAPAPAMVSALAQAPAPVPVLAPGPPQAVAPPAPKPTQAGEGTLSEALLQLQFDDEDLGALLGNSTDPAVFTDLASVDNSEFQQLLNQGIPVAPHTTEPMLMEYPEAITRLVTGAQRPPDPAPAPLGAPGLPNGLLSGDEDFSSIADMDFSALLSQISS

binding: binds
Substance: p65 (NF-κB) (from UniProt Q04206 1-551)
